These results are taken from article PMC3634024.

Sequences of proteins named here, by UniProt entry; tags and fusion partners are left off.
UniProt Q12929: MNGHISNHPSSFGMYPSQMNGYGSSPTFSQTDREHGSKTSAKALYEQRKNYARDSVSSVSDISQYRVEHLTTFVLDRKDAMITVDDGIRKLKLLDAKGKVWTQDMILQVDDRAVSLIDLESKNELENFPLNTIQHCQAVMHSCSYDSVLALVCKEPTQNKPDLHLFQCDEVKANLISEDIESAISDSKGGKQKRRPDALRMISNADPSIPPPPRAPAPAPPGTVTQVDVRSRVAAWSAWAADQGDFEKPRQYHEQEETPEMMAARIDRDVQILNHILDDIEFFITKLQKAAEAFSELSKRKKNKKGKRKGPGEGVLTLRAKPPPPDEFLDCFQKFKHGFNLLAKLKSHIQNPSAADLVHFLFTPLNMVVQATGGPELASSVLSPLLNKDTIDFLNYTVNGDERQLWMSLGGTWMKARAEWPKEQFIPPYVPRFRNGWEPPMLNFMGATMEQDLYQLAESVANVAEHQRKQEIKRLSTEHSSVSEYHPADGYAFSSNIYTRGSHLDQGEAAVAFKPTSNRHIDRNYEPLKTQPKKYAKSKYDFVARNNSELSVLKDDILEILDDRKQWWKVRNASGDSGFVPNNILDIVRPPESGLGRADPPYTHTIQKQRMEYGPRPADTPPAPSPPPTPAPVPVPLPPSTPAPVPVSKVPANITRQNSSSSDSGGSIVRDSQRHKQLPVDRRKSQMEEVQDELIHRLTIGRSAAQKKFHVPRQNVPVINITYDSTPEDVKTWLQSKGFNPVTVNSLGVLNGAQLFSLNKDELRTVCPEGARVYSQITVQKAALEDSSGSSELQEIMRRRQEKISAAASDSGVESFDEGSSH

No constants are given. Whether binding was seen depends on the method and setting. Binding seen in cells or lysates may run through a third protein. Some binding calls cover weakened binding; strength is not graded here.

Assay [1] concerns the target T1, Insulin receptor substrate 4 (human (endogenous in HEK 293T)) (UniProt O14654).
T1 sequence: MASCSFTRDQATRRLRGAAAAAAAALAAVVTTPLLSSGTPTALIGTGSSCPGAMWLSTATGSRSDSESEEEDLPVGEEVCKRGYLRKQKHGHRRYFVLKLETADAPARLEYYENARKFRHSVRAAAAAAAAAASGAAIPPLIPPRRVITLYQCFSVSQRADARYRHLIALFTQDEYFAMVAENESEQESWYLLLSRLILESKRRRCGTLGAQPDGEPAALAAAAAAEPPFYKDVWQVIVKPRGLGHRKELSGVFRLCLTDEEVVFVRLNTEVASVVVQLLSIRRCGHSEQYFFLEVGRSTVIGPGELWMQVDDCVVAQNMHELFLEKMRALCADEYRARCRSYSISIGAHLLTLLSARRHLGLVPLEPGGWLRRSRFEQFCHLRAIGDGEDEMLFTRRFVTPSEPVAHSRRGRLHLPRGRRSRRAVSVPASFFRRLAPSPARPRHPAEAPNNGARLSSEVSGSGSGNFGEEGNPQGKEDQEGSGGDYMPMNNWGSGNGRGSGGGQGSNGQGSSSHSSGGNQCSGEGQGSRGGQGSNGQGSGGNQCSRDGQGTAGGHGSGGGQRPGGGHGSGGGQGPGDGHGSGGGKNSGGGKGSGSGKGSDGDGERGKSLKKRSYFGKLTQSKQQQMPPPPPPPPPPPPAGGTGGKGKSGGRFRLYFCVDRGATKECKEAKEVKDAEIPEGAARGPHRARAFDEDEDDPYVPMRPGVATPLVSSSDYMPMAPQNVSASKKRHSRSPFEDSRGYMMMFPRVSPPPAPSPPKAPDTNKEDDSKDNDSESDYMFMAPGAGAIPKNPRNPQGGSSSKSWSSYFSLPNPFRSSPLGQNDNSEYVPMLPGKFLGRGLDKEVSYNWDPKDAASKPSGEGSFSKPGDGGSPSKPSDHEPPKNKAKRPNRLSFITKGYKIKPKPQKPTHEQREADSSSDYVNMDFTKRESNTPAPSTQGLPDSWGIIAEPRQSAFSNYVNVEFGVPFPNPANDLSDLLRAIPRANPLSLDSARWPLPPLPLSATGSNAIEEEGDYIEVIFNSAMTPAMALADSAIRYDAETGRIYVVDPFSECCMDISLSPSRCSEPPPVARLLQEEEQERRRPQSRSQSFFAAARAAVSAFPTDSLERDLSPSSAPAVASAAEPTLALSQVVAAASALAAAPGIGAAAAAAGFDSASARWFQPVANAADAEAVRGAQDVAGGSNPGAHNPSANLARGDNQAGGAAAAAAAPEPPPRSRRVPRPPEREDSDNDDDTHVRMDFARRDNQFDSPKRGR
Description: co-IP; endogenous proteins; endogenous IRS4 immunoprecipitated from HEK293T cells stimulated with 20 ng/ml FGF2 for 15 min, without inhibitor or after 30 min dasatinib; Western blot. Background: In western blotting, separated proteins are transferred to a membrane and probed.

Assay [2] concerns the target T1, Insulin receptor substrate 4 (human (endogenous in HEK 293T)). In words: condition: only cells in which the FGF receptor is not active (no FGF2, or SU5402 before FGF2); co-IP; endogenous proteins; endogenous IRS4 immunoprecipitated from HEK293T cells in which the FGF receptor was not active (no FGF2, or 30 min SU5402 before FGF2); Western blot.
Another assay addresses Myc-Eps8 (human) (UniProt Q12929). Description: co-IP; anti-Myc (9E10) on Protein G Dynabeads, whole cell lysate mixed at 4°C for 30 min; HEK 293T cells transfected with Myc-Eps8, 20 ng/ml FGF2 for 15 min; Western blot of endogenous partners; in Figure 6A also without FGF2 and after 30 min pre-treatment with SU5402 or dasatinib.

Regarding “Eps8 (endogenous) (from UniProt Q12929 1-822)”, the binding entry in assay [1] is listed as “binds”; in assay [2], “no binding”.

B1: Vav2 (protein, UniProt P52735 1-878)
chain: MEQWRQCGRWLIDCKVLPPNHRVVWPSAVVFDLAQALRDGVLLCQLLHNLSPGSIDLKDINFRPQMSQFLCLKNIRTFLKVCHDKFGLRNSELFDPFDLFDVRDFGKVISAVSRLSLHSIAQNKGIRPFPSEETTENDDDVYRSLEELADEHDLGEDIYDCVPCEDGGDDIYEDIIKVEVQQPMIRYMQKMGMTEDDKRNCCLLEIQETEAKYYRTLEDIEKNYMSPLRLVLSPADMAAVFINLEDLIKVHHSFLRAIDVSVMVGGSTLAKVFLDFKERLLIYGEYCSHMEHAQNTLNQLLASREDFRQKVEECTLKVQDGKFKLQDLLVVPMQRVLKYHLLLKELLSHSAERPERQQLKEALEAMQDLAMYINEVKRDKETLRKISEFQSSIENLQVKLEEFGRPKIDGELKVRSIVNHTKQDRYLFLFDKVVIVCKRKGYSYELKEIIELLFHKMTDDPMNNKDVKKSHGKMWSYGFYLIHLQGKQGFQFFCKTEDMKRKWMEQFEMAMSNIKPDKANANHHSFQMYTFDKTTNCKACKMFLRGTFYQGYMCTKCGVGAHKECLEVIPPCKFTSPADLDASGAGPGPKMVAMQNYHGNPAPPGKPVLTFQTGDVLELLRGDPESPWWEGRLVQTRKSGYFPSSSVKPCPVDGRPPISRPPSREIDYTAYPWFAGNMERQQTDNLLKSHASGTYLIRERPAEAERFAISIKFNDEVKHIKVVEKDNWIHITEAKKFDSLLELVEYYQCHSLKESFKQLDTTLKYPYKSRERSASRASSRSPASCASYNFSFLSPQGLSFASQGPSAPFWSVFTPRVIGTAVARYNFAARDMRELSLREGDVVRIYSRIGGDQGWWKGETNGRIGWFPSTYVEEEGIQ
For B1, in the assay with Myc-Eps8 (human), the binding result is recorded as “binds”.
